Laboratory results from PMC2398774.
These are yes or no findings as the source states them, for the method shown. In cells and extracts the contact can be indirect. A result given as binding can be weak or reduced; the word gives no strength.

Target: GST-Su(H)
Assay: pull-down; GST-fusion proteins on glutathione-agarose beads mixed (1:1) with 35S-labelled in vitro translated proteins in lysis buffer (50 mM Tris pH 8.0, 150 mM NaCl, 0.1% SDS, sodium deoxycholate, protease inhibitors), 1 h at 4°C; SDS-PAGE, autoradiography; only the target purified

binding	Binder
binds	Foxc2 (protein, UniProt Q61850 1-494, [35S]methionine-labelled) MQARYSVSDPNALGVVPYLSEQNYYRAAGSYGGMASPMGVYSGHPEQYGAGMGRSYAPYHHQPAAPKDLVKPPYSYIALITMAIQNAPEKKITLNGIYQFIMDRFPFYRENKQGWQNSIRHNLSLNECFVKVPRDDKKPGKGSYWTLDPDSYNMFENGSFLRRRRRFKKKDVPKDKEERAHLKEPPSTTAKGAPTGTPVADGPKEAEKKVVVKSEAASPALPVITKVETLSPEGALQASPRSASSTPAGSPDGSLPEHHAAAPNGLPGFSVETIMTLRTSPPGGDLSPAAARAGLVVPPLALPYAAAPPAAYTQPCAQGLEAAGSAGYQCSMRAMSLYTGAERPAHVCVPPALDEALSDHPSGPGSPLGALNLAAGQEGALGASGHHHQHHGHLHPQAPPPAPQPPPAPQPATQATSWYLNHGGDLSHLPGHTFATQQQTFPNVREMFNSHRLGLDNSSLGESQVSNASCQLPYRATPSLYRHAAPYSYDCTKY
no binding	Foxc1 (protein, UniProt Q61572 1-553, [35S]methionine-labelled) MQARYSVSSPNSLGVVPYLGGEQSYYRAAAAAAGGGYTAMPAPMSVYSHPAHAEQYPGSMARAYGPYTPQPQPKDMVKPPYSYIALITMAIQNAPDKKITLNGIYQFIMDRFPFYRDNKQGWQNSIRHNLSLNECFVKVPRDDKKPGKGSYWTLDPDSYNMFENGSFLRRRRRFKKKDAVKDKEEKGRLHLQEPPPPQAGRQPAPAPPEQAEGSAPGPQPPPVRIQDIKTENGTCPSPPQPLSPAAALGSGSAATVPKIESPDSSSSSLSSGSSPPGSLPSARPLSLDAAEPAPPPQPAPPPHHSQGFSVDNIMTSLRGSPQGSAAELGSGLLASAAASSRAGIAPPLALGAYSPGQSSLYSSPCSQSSSAGSSGGGGGGGGGGGGSSSAAGTGGAATYHCNLQAMSLYAAGERGGHLQGPAGGAGSAAVDDPLPDYSLPPATSSSSSSLSHGGGGQEASHHPASHQGRLTSWYLNQAGGDLGHLASAAAAAAAAGYPGQQQNFHSVREMFESQRIGLNNSPVNGNSSCQMAFPASQSLYRTSGAFVYDCSKF
